From the supplement of paper PMC8728848
The list shows a part of the results.

How the values were obtained:
Experiment in all cases: glycan array binding signal (z-score within array); higher = stronger binding
Conditions in all cases: glycan notation: IUPAC condensed, linker removed
[1] = molecular target: Fuc(a1-2)Gal(b1-4)GlcNAc(b1-3)Gal(b1-4)GlcNAc(b1-2)Man(a1-3)[Fuc(a1-2)Gal(b1-4)GlcNAc(b1-3)Gal(b1-4)GlcNAc(b1-2)Man(a1-6)]Man(b1-4)GlcNAc(b1-4)GlcNAc
Method in brief: (§1)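 Columns mapping to the same glycan were averaged after glycan names were converted to IUPAC-condensed notation. The data come from 3228 arrays in the Consortium for Functional Glycomics database, limited to those with an available protein sequence. Binding is reported as a within-array Z-score averaged across arrays of one protein sequence and across linkers.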

[2] = molecular target: Fuc(a1-2)Gal(b1-4)GlcNAc(b1-3)Gal(b1-4)GlcNAc(b1-3)Gal(b1-4)GlcNAc
Method in brief: as §1

[3] = molecular target: Fuc(a1-2)Gal(b1-4)GlcNAc(b1-3)GalNAc
Method in brief: as §1

[4] = molecular target: Fuc(a1-2)Gal(b1-4)GlcNAc(b1-3)[Fuc(a1-2)Gal(b1-4)GlcNAc(b1-6)]GalNAc
Method in brief: as §1

[5] = molecular target: Fuc(a1-2)Gal(b1-4)GlcNAc(b1-3)[Fuc(a1-3)[Gal(b1-4)]GlcNAc(b1-6)]Gal(b1-4)Glc
Method in brief: as §1

[6] = molecular target: Fuc(a1-2)Gal(b1-4)GlcNAc(b1-6)GalNAc
Method in brief: as §1

[7] = molecular target: Fuc(a1-2)Gal(b1-4)GlcNAc6S
Method in brief: as §1

[8] = molecular target: Fuc(a1-2)Gal(b1-4)[Fuc(a1-3)]GlcNAc
Method in brief: as §1

[9] = molecular target: Fuc(a1-2)Gal(b1-4)[Fuc(a1-3)]GlcNAc(b1-2)Man(a1-3)[Fuc(a1-2)Gal(b1-4)[Fuc(a1-3)]GlcNAc(b1-2)Man(a1-6)]Man(b1-4)GlcNAc(b1-4)[Fuc(a1-6)]GlcNAc
Method in brief: as §1

[10] = molecular target: Fuc(a1-2)Gal(b1-4)[Fuc(a1-3)]GlcNAc(b1-2)[Fuc(a1-2)Gal(b1-4)[Fuc(a1-3)]GlcNAc(b1-4)]Man(a1-3)[Fuc(a1-2)Gal(b1-4)[Fuc(a1-3)]GlcNAc(b1-2)Man(a1-6)]Man(b1-4)GlcNAc(b1-4)GlcNAc
Method in brief: as §1

[11] = molecular target: Fuc(a1-2)Gal(b1-4)[Fuc(a1-3)]GlcNAc(b1-3)Gal(b1-4)[Fuc(a1-3)]GlcNAc
Method in brief: as §1

[12] = molecular target: Fuc(a1-2)Gal(b1-4)[Fuc(a1-3)]GlcNAc(b1-3)Gal(b1-4)[Fuc(a1-3)]GlcNAc(b1-3)Gal(b1-4)[Fuc(a1-3)]GlcNAc
Method in brief: as §1

[13] = molecular target: Fuc(a1-2)Gal(b1-4)[Fuc(a1-3)]GlcNAc(b1-3)GalNAc
Method in brief: as §1

[14] = molecular target: Fuc(a1-2)Gal(b1-4)[Fuc(a1-3)]GlcNAc(b1-3)[Neu5Ac(a2-6)Gal(b1-4)GlcNAc(b1-6)]Gal(b1-4)Glc
Method in brief: as §1

[15] = molecular target: Fuc(a1-2)Gal3S(b1-4)GlcNAc
Method in brief: as §1

[16] = molecular target: Fuc(a1-2)Gal6S(b1-3)GlcNAc
Method in brief: as §1

[17] = molecular target: Fuc(a1-2)Gal6S(b1-3)GlcNAc6S
Method in brief: as §1

Fuc(a1-2)Gal6S(b1-4)Glc = molecular target: Fuc(a1-2)Gal6S(b1-4)Glc
Method in brief: as §1

[18] = molecular target: Fuc(a1-2)Gal6S(b1-4)Glc6S
Method in brief: as §1

Fuc(a1-2)[Gal(a1-3)]Gal = molecular target: Fuc(a1-2)[Gal(a1-3)]Gal
Method in brief: as §1

[19] = molecular target: Fuc(a1-2)[Gal(a1-3)]Gal(b1-3)GalNAc
Method in brief: as §1

[20] = molecular target: Fuc(a1-2)[Gal(a1-3)]Gal(b1-3)GalNAc(b1-3)Gal(a1-4)Gal(b1-4)Glc
Method in brief: as §1

[21] = molecular target: Fuc(a1-2)[Gal(a1-3)]Gal(b1-3)GlcNAc
Method in brief: as §1

[22] = molecular target: Fuc(a1-2)[Gal(a1-3)]Gal(b1-3)GlcNAc(b1-2)Man(a1-3)[Fuc(a1-2)[Gal(a1-3)]Gal(b1-3)GlcNAc(b1-2)Man(a1-6)]Man(b1-4)GlcNAc(b1-4)GlcNAc
Method in brief: as §1

[23] = molecular target: Fuc(a1-2)[Gal(a1-3)]Gal(b1-3)GlcNAc(b1-2)Man(a1-3)[Fuc(a1-2)[Gal(a1-3)]Gal(b1-3)GlcNAc(b1-2)Man(a1-6)]Man(b1-4)GlcNAc(b1-4)[Fuc(a1-6)]GlcNAc
Method in brief: as §1

[24] = molecular target: Fuc(a1-2)[Gal(a1-3)]Gal(b1-3)GlcNAc(b1-3)GalNAc
Method in brief: as §1

[25] = molecular target: Fuc(a1-2)[Gal(a1-3)]Gal(b1-3)GlcNAc(b1-6)GalNAc
Method in brief: as §1

[26] = molecular target: Fuc(a1-2)[Gal(a1-3)]Gal(b1-4)Glc
Method in brief: as §1

[27] = molecular target: Fuc(a1-2)[Gal(a1-3)]Gal(b1-4)GlcNAc
Method in brief: as §1

[28] = molecular target: Fuc(a1-2)[Gal(a1-3)]Gal(b1-4)GlcNAc(b1-2)Man
Method in brief: as §1

B1: Epa20 (Candida glabrata) (protein)
chain: MGSSHHHHHHSSGLVPRGSHMASSNIPNNYPLGCSNKYSGHLPGLKMELYSYNYVNPRHPDPQNPGKLDQLYDPNLLGTYECFDSSYKDINYPRVGYKSKTLIGRSDGVSGILNFNFVPPWGCMPQKGQLPPAYNFKSNITLSNFTMILFGYFKPKISGNHIFSLHGDDLIYLNFGAGNAFDCCRQESSADNFGNYQAFSLWGINWEKKTLTVYLDMNTYYPIRIFYNNRDYQAIFNFSFKTEFDSSPVIDFQDYFFFLRDIDGGCPGEV
glycan array binding signal (z-score) [1]: -0.254 | glycan array binding signal (z-score) [2]: -0.44 | glycan array binding signal (z-score) [3]: -0.072 | glycan array binding signal (z-score) [4]: 0.324 | glycan array binding signal (z-score) [5]: -0.807 | glycan array binding signal (z-score) [6]: 0.81 | glycan array binding signal (z-score) [7]: -0.623 | glycan array binding signal (z-score) [8]: -0.496 | glycan array binding signal (z-score) [9]: -0.521 | glycan array binding signal (z-score) [10]: 0.267 | glycan array binding signal (z-score) [11]: -0.331 | glycan array binding signal (z-score) [12]: -0.389 | glycan array binding signal (z-score) [13]: 4.96 | glycan array binding signal (z-score) [14]: -0.528 | glycan array binding signal (z-score) [15]: -0.566 | glycan array binding signal (z-score) [16]: -0.604 | glycan array binding signal (z-score) [17]: 0.538 | glycan array binding signal (z-score) (Fuc(a1-2)Gal6S(b1-4)Glc): -0.005 | glycan array binding signal (z-score) [18]: -0.642 | glycan array binding signal (z-score) (Fuc(a1-2)[Gal(a1-3)]Gal): -0.6 | glycan array binding signal (z-score) [19]: -0.104 | glycan array binding signal (z-score) [20]: -0.067 | glycan array binding signal (z-score) [21]: -0.248 | glycan array binding signal (z-score) [22]: -0.338 | glycan array binding signal (z-score) [23]: 0.072 | glycan array binding signal (z-score) [24]: -0.37 | glycan array binding signal (z-score) [25]: -0.365 | glycan array binding signal (z-score) [26]: -0.254 | glycan array binding signal (z-score) [27]: -0.542 | glycan array binding signal (z-score) [28]: -0.574
